No constants are given. Whether binding was seen depends on the method and setting. Some results given as binding are weak or reduced against the parent protein; the word gives no strength.
T1: PflB_(113–820) (C. jejuni 81-176)
T1 sequence: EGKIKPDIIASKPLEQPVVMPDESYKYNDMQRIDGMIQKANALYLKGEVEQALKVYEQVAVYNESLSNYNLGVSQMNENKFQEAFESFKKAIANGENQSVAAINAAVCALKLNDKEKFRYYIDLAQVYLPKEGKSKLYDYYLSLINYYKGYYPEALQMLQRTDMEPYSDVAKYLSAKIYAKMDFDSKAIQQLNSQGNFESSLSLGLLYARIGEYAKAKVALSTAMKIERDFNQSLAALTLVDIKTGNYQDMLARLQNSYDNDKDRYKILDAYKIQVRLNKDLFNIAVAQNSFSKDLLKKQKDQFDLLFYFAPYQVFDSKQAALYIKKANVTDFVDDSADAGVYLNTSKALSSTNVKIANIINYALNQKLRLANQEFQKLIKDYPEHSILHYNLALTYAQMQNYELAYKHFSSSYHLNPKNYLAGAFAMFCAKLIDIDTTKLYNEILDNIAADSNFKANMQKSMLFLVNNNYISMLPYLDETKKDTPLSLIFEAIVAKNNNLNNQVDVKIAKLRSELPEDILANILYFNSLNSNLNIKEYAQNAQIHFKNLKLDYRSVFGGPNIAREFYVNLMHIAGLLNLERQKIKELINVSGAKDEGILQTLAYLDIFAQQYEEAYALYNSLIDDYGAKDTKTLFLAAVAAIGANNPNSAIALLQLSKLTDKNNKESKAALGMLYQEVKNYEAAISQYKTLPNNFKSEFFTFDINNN

B1: PflA_(16–788) of the purified PflA_(16–788) and PflB_(113–820) complex (domain or fragment)
chain: AFELVLNTGRENNQAFAVLHASNDLEFTCQKFITEAKVHFECDIVGMVDNKLKDQSFSAFDLKFIQEAQKIKMIILPKIQARMFDTSQNIYIDKELSSSSSHKSKAFTFIFTPELAPIKDYDGLDFNINFPHESLPYVGALDLNSDPVVIPQSADINTYLRIKKEYDKANYNQVVIDAQNAINRYRGSIFTSEFILYKLRAQNKLYTQDPSMRDQQILEKMIDDAKNWTRTFTSDKNFSEVLHIMLRTYIALAQRADVEYTMSILDNEQPNNYFTQLSKLDYADYIYNLNEKEKAVNIYENTYFNTKNLDLAARAAMSLAKNLLSNEQVNKAIEYINTILKANPEYFGKDIPRSLELAKLFNQKGQFDISASIYEDAFAKMSKLDPSYEETLKDLALVLSHANRSSDAKKYLDLYMDDYLDGKYLDEIKKASDEVFFALGDNNASFLHQRYTDLMKQYANKDENIANKALDEDVALYYKEGNFSAILAYKDLIESKKIPNATQFLEKAAINDLKNAIKADNCINAANIFMRFSAYDIGQKIENKKQMLACLIRTSNVEQALDYIDKNYNEDSIFYGLQKASILFDNKQYPQVIKISKDIANSRILKSDDENFKAYYLQFLSLLRLNDYNQAIKILQILESFPMNFSMVEAYDALLSYANDHNMQTTILTYAPKAIDYQNFKGINLFSPNLEFIYLDALTKINKNEESLAVLTDLLKLKLSDEDRARALYIQALTYERMQNIQAEKESLKQCLEIKSASNWQNLCKSKNQILNQ
notes: PflA of C. jejuni 81-176, residues 16-788; only 16-163 (β-sandwich domain and flexible loop) are resolved in the cryo-EM structure; PflA16-788 was cloned both in pET22b (C-terminal 6×His) and in pET26b (C-terminal Strep-tag); also called PflA_(16–163) (the part resolved in the map)

Columns and labels:
[1] = target: PflB (bacterial two-hybrid fusion of Fig. 2j) (C. jejuni 81-176); assay: two-hybrid; bacterial two hybrid (BTH): T25 and T18 fusions co-transformed into E. coli BTH101; spotted on LB plates with X-Gal and 0.5 mM IPTG, 30 °C, 24 h
[2] = target: T1, PflB_(113–820) (C. jejuni 81-176); assay: cryo-EM structure; single-particle cryo-EM of the purified PflA16-788 and PflB113-820 complex at 0.4 mg/ml; 3.23 Å; both purified

Molecule	binding [1]	binding [2]
PflA (bacterial two-hybrid fusion of Fig. 2j) (from UniProt Q46092 1-788)	binds	–
B1	–	binds
